This is one part of the list.
Experiments:
Experiment in all cases: log2 fold change, soluble protein after heating vs DMSO (PISA); higher = thermal stabilisation; K562 lysate, 10 uM; active = over 0.2 and 3.5 SD of the protein, either way, in both replicates (recomputed)
vemurafenib = compound: CCCS(=O)(=O)Nc1ccc(F)c(C(=O)c2c[nH]c3ncc(-c4ccc(Cl)cc4)cc23)c1F [vemurafenib]
In short: (§1)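 K562 pellets were dounce-homogenised in PBS pH 7.4 containing 1 mM MgCl2, and the crude extract, at 1 mg/mL protein, was exposed to 10 μM compound for 30 min. Aliquots were heated for 3 min across 48°C-58°C, pooled, brought to 0.5% NP-40 at 4°C and spun at 21,000xg for 90 min, with the supernatant taken as soluble protein. TMTpro 16plex LC-MS/MS with equalised channel sums quantified that protein. Values are log-two fold changes in thermal stability relative to solvent controls, taken from duplicates.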

Protein sequences, listed by entry. Tags and fused reporters are not part of them. Lines headed by an entry give the natural chain unless they say otherwise; changes in a name come on top.
UniProt Q9UI10, whole entry, looked up: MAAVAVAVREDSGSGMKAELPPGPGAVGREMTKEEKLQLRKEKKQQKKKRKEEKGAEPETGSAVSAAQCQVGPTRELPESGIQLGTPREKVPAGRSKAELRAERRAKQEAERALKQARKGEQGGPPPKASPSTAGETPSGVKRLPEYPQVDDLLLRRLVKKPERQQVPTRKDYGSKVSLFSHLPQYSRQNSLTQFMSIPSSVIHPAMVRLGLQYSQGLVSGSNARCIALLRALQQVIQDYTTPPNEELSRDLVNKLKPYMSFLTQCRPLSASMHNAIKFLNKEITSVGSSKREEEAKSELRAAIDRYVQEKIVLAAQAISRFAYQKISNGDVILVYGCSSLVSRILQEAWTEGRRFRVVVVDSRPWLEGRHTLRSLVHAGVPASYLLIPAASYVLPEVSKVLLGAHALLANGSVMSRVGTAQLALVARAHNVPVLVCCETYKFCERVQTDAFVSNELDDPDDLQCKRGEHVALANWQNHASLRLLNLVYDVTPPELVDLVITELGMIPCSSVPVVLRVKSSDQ
UniProt Q969X5: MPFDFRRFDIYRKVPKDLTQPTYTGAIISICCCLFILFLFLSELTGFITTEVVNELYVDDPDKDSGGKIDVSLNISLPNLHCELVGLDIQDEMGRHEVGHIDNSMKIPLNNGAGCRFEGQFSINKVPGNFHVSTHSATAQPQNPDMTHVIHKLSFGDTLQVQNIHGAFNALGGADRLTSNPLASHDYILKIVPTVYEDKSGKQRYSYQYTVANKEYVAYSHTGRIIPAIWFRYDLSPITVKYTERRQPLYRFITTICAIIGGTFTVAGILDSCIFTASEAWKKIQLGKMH
UniProt Q03468, whole entry, looked up: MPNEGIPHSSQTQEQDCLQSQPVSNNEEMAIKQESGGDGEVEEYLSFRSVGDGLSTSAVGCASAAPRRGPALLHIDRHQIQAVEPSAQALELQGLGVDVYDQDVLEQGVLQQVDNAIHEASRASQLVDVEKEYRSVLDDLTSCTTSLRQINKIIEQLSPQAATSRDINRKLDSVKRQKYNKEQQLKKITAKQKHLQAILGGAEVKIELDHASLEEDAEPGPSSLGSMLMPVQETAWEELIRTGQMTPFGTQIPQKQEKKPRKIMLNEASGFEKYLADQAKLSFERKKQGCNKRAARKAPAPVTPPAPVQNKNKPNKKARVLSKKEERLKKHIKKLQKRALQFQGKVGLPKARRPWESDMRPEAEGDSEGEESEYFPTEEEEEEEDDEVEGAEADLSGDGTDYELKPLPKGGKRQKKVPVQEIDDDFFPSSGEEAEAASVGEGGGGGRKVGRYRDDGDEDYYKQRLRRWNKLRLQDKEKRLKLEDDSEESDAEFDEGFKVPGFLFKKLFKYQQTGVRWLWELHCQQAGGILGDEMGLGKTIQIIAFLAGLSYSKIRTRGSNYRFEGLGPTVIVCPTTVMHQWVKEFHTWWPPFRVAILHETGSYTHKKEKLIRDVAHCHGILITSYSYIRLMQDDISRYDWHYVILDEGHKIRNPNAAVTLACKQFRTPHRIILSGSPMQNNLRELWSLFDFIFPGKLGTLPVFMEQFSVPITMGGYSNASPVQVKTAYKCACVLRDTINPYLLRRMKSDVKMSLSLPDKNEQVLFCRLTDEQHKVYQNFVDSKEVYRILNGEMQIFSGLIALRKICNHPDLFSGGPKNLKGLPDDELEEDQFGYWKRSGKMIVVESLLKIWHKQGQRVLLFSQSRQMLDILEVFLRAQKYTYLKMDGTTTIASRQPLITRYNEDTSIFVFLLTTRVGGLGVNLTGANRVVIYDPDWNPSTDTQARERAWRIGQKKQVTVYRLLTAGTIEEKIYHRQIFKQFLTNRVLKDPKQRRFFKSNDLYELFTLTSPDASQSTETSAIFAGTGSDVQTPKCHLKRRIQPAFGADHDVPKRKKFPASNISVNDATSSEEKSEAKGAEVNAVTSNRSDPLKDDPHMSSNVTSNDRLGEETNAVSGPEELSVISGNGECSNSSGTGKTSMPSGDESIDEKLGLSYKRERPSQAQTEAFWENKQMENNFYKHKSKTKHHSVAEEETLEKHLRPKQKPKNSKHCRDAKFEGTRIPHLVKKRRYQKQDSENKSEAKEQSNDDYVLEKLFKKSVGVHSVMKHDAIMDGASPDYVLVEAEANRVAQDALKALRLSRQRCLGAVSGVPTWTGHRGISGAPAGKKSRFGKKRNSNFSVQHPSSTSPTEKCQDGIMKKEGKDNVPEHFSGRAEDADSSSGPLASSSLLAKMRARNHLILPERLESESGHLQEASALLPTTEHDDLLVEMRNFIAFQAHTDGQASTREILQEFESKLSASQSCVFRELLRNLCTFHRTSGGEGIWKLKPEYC
UniProt O75354: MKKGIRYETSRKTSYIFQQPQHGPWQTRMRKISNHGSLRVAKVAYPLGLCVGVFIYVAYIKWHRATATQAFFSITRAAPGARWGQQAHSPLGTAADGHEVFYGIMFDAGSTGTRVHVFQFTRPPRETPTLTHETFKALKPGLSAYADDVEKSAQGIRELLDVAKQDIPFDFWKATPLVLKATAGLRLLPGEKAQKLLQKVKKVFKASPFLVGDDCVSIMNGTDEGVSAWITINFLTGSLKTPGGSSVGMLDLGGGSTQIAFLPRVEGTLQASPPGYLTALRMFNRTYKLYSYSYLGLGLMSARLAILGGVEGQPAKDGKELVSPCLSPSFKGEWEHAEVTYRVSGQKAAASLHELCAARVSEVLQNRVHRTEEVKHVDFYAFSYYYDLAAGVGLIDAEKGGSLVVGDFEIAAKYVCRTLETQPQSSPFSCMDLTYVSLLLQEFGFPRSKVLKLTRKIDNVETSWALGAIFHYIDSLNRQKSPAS
UniProt O60516: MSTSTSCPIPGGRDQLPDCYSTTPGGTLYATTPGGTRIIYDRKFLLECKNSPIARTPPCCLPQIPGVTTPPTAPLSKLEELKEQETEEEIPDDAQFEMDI
UniProt Q9NZJ5: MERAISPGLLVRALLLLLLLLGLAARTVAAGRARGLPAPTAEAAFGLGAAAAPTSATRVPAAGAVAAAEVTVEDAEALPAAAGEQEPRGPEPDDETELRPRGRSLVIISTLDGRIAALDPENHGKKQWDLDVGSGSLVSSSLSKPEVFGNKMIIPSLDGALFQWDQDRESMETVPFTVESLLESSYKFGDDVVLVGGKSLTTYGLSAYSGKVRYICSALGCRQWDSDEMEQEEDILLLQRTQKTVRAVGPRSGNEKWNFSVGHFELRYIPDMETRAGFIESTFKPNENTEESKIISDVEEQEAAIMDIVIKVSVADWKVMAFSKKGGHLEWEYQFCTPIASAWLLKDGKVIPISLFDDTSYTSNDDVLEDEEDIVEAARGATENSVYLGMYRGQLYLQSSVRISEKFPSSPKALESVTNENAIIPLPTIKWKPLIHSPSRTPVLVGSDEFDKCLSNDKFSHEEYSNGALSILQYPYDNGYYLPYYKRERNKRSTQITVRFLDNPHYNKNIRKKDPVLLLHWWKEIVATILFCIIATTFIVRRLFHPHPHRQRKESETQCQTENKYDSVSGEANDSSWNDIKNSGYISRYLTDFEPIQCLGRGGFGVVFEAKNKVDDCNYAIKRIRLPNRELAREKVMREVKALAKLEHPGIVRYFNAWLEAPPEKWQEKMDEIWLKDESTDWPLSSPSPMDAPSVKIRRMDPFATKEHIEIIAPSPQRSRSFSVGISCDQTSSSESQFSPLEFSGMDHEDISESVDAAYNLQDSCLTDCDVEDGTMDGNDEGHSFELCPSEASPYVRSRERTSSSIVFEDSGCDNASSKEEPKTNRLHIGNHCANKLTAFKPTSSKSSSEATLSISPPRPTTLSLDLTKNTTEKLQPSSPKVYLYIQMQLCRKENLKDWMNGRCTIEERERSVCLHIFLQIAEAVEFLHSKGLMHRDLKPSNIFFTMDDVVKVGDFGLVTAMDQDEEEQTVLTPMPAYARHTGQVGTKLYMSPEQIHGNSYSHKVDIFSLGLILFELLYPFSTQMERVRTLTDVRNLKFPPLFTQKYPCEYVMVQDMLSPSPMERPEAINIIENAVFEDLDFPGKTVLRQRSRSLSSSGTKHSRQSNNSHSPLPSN
UniProt Q9H6S3: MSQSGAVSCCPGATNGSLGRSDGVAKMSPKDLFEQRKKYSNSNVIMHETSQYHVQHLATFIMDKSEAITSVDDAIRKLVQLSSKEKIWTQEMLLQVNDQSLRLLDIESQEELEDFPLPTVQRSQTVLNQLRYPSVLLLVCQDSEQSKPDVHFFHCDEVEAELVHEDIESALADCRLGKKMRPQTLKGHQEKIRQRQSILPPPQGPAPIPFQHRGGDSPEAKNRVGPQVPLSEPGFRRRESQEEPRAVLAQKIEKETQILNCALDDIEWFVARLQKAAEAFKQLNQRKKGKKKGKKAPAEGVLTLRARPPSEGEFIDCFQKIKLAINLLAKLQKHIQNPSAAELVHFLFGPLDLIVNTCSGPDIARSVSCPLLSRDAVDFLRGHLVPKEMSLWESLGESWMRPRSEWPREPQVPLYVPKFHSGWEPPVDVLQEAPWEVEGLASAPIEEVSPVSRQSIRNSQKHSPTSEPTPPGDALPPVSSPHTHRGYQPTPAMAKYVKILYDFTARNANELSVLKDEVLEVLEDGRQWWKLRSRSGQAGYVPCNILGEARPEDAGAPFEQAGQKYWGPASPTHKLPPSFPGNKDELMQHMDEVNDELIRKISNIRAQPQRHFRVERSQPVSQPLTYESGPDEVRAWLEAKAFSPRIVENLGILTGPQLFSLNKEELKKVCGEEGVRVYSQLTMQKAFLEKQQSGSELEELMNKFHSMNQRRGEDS
UniProt Q9UKR5: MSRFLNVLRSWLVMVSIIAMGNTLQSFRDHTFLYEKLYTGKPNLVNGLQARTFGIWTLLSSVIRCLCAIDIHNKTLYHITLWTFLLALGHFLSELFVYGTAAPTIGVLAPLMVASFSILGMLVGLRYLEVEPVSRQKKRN
UniProt Q6P179: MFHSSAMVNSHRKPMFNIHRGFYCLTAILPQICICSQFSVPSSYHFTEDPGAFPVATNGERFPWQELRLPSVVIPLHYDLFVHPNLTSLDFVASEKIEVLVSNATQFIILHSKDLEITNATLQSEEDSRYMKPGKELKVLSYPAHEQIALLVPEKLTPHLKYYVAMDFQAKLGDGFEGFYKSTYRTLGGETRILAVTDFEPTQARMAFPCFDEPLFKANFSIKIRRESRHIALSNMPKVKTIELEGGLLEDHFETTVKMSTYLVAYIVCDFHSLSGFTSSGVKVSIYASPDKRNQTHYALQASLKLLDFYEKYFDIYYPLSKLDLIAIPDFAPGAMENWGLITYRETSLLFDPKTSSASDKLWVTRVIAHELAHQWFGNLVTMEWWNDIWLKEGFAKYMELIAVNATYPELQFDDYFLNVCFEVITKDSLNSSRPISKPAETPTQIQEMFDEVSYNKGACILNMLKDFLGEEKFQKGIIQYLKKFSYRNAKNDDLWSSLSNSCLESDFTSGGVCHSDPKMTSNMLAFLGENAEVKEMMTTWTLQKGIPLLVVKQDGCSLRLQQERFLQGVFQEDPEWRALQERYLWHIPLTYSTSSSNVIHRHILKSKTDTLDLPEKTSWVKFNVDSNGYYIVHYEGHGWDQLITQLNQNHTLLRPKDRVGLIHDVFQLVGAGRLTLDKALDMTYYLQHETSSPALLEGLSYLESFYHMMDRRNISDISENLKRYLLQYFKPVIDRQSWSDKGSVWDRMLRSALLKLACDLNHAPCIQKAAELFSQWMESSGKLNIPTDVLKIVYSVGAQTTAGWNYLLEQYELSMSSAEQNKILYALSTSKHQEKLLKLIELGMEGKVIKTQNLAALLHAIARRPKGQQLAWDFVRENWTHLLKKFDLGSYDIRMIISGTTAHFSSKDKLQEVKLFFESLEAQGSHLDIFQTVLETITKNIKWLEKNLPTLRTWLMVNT
UniProt Q9HCM4: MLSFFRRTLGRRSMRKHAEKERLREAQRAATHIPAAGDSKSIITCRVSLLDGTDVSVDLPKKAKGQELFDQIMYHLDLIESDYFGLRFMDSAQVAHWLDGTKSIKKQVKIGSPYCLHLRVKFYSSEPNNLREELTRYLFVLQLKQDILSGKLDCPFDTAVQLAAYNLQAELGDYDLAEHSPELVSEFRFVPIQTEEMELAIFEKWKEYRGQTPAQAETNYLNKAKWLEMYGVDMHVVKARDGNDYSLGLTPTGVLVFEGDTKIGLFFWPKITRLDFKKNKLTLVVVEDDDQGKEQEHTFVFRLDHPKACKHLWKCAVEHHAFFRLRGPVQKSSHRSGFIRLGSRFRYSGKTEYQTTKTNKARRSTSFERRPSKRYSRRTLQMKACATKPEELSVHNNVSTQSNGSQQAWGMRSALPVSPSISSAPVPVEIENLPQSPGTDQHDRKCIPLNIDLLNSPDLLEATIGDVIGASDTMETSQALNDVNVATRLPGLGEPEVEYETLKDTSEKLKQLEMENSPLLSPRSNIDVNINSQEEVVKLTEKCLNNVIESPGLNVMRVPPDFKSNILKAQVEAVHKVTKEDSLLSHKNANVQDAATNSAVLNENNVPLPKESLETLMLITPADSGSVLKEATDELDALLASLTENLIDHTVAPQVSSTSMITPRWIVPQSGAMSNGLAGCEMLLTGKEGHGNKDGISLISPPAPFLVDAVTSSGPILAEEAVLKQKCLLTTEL

[1] = compound: CCCS(=O)(=O)Nc1ccc(F)c(C(=O)c2c[nH]c3ncc(Cl)cc23)c1F
In short: as §1

barasertib = compound: CCN(CCCOc1ccc2c(Nc3cc(CC(=O)Nc4cccc(F)c4)[nH]n3)ncnc2c1)CCOP(=O)(O)O [barasertib]
In short: as §1

[2] = compound: CC[C@@H]1C(=O)N(C)c2cnc(Nc3ccc(C(=O)NC4CCN(C)CC4)cc3OC)nc2N1C1CCCC1
In short: as §1

volasertib = compound: CC[C@@H]1C(=O)N(C)c2cnc(Nc3ccc(C(=O)N[C@H]4CC[C@H](N5CCN(CC6CC6)CC5)CC4)cc3OC)nc2N1C(C)C [volasertib]
In short: as §1

[3] = compound: CCn1c(C(=O)N(C2CC2)C2CC2)cc2c3c(ncn3C)c(Nc3cc(C)n(C)n3)nc21
In short: as §1

[4] = compound: CCn1cc(-c2ccnc3[nH]c(-c4cccc(CN(C)C)c4)cc23)c(-c2ccc(NC(=O)N(C)C)cc2)n1
In short: as §1

[5] = compound: CN1CCC(CNc2ccc3ncc(-c4cccc(OC(F)(F)F)c4)n3n2)CC1
In short: as §1

saracatinib = compound: CN1CCN(CCOc2cc(OC3CCOCC3)c3c(Nc4c(Cl)ccc5c4OCO5)ncnc3c2)CC1 [saracatinib]
In short: as §1

sotrastaurin = compound: CN1CCN(c2nc(C3=C(c4c[nH]c5ccccc45)C(=O)NC3=O)c3ccccc3n2)CC1 [sotrastaurin]
In short: as §1

alvocidib = compound: CN1CC[C@H](c2c(O)cc(O)c3c(=O)cc(-c4ccccc4Cl)oc23)[C@H](O)C1 [alvocidib]
In short: as §1

Tubastatin A = compound: CN1CCc2c(c3ccccc3n2Cc2ccc(C(=O)NO)cc2)C1 [Tubastatin A]
In short: as §1

[6] = compound: CNC(=O)C1=CC=CC=C1NC2=NC(=NC=C2Cl)NC3=C(C=C(C=C3)N4CCOCC4)OC
In short: as §1

defactinib = compound: CNC(=O)c1ccc(Nc2ncc(C(F)(F)F)c(NCc3nccnc3N(C)S(C)(=O)=O)n2)cc1 [defactinib]
In short: as §1

[7] = compound: CNc1nc(-c2ccc3c(N)n[nH]c3c2)cc(N2C[C@@H](C(=O)NC3CCCCC3)CC[C@H]2C)n1
In short: as §1

encorafenib = compound: COC(=O)N[C@@H](C)CNc1nccc(-c2cn(C(C)C)nc2-c2cc(Cl)cc(NS(C)(=O)=O)c2F)n1 [encorafenib]
In short: as §1

[8] = compound: COC(=O)[C@H](CCSC)NC(=O)C1=C(C=C(C=C1)NC[C@H](CS)N)C2=CC=CC=C2
In short: as §1

alisertib = compound: COc1cc(Nc2ncc3c(n2)-c2ccc(Cl)cc2C(c2c(F)cccc2OC)=NC3)ccc1C(=O)O [alisertib]
In short: as §1

[9] = compound: COc1cc2nc(-c3cc(F)ccc3O)nc(N[C@@H]3CNC[C@H]3C(C)(C)O)c2cc1OC
In short: as §1

gefitinib = compound: COc1cc2ncnc(Nc3ccc(F)c(Cl)c3)c2cc1OCCCN1CCOCC1 [gefitinib]
In short: as §1

Row | Target | log2 fold change (vemurafenib) | log2 fold change [1] | log2 fold change (barasertib) | log2 fold change [2] | log2 fold change (volasertib) | log2 fold change [3] | log2 fold change [4] | log2 fold change [5] | log2 fold change (saracatinib) | log2 fold change (sotrastaurin) | log2 fold change (alvocidib) | log2 fold change (Tubastatin A) | log2 fold change [6] | log2 fold change (defactinib) | log2 fold change [7] | log2 fold change (encorafenib) | log2 fold change [8] | log2 fold change (alisertib) | log2 fold change [9] | log2 fold change (gefitinib)
1 | EIF2B4 isoform 2 (UniProt Q9UI10) | inactive: -0.034 | inactive: 0.02 | inactive: 0.006 | inactive: -0.038 | inactive: -0.017 | inactive: -0.004 | inactive: -0.02 | inactive: 0.002 | inactive: 0.006 | inactive: -0.004 | inactive: -0.015 | inactive: -0.025 | inactive: 0.013 | inactive: 0.035 | inactive: 0.02 | inactive: 0.018 | inactive: 0.162 | inactive: -0.014 | inactive: 0.016 | inactive: 0
2 | EPC2 (UniProt Q52LR7) | inactive: 0.125 | inactive: 0.107 | inactive: -0.168 | inactive: -0.056 | inactive: -0.497 | – | – | – | inactive: 0 | inactive: 0.016 | – | – | – | inactive: -0.042 | inactive: 0.059 | inactive: -0.028 | inactive: 0.078 | – | inactive: 0.02 | –
3 | EIF4H isoform 2 (UniProt Q15056) | inactive: -0.394 | inactive: 0.102 | inactive: 0.011 | inactive: 0.151 | inactive: 0.005 | inactive: 0.227 | – | – | inactive: 0.008 | inactive: -0.008 | – | inactive: 0.046 | inactive: 0.233 | inactive: 0.294 | inactive: -0.045 | inactive: -0.112 | inactive: -0.082 | – | inactive: -0.045 | –
4 | ERGIC1 (UniProt Q969X5) | inactive: 0.026 | inactive: 0.018 | inactive: -0.057 | inactive: 0.019 | inactive: 0.055 | inactive: 0.039 | inactive: -0.018 | inactive: -0.002 | inactive: 0.028 | inactive: 0.017 | inactive: -0.004 | inactive: 0.043 | inactive: 0.024 | inactive: -0.033 | inactive: 0.018 | inactive: 0.006 | inactive: -0.006 | inactive: -0.011 | inactive: -0.015 | inactive: 0.063
5 | EME1 isoform 2 (UniProt Q96AY2) | inactive: -0.077 | – | inactive: -0.023 | inactive: 0.104 | – | inactive: -0.006 | inactive: -0.007 | inactive: -0.012 | – | inactive: 0.028 | inactive: -0.04 | inactive: -0.072 | – | inactive: -0.031 | – | inactive: 0.04 | inactive: 0.096 | – | – | –
6 | ERCC6 (UniProt Q03468) | inactive: 0.177 | inactive: 0.077 | inactive: -0.112 | inactive: 0.081 | inactive: 0.006 | inactive: 0.002 | inactive: -0.1 | inactive: 0.026 | inactive: -0.124 | – | inactive: -0.09 | inactive: 0.031 | inactive: -0.017 | inactive: -0.04 | inactive: 0.134 | inactive: -0.111 | inactive: -0.064 | inactive: -0.178 | inactive: -0.006 | inactive: 0.246
7 | EPPK1 (UniProt P58107) | inactive: 0.059 | inactive: 0.037 | inactive: 0.068 | inactive: -0.064 | inactive: -0.008 | inactive: 0.063 | inactive: -0.048 | inactive: -0.038 | inactive: 0.05 | inactive: 0.022 | inactive: 0.038 | inactive: -0.114 | inactive: -0.027 | inactive: 0.032 | inactive: -0.109 | inactive: 0.029 | inactive: 0.144 | inactive: 0 | inactive: 0.044 | inactive: 0.01
8 | ENTPD6 (UniProt O75354) | – | inactive: -0.038 | inactive: -0.153 | – | inactive: 0.035 | inactive: -0.025 | inactive: 0.128 | inactive: 0.039 | inactive: -0.007 | inactive: 0.036 | inactive: -0.051 | inactive: -0.04 | inactive: -0.088 | – | inactive: 0.069 | – | – | – | inactive: -0.059 | –
9 | EIF2B5, A0A3B3ITK8 | – | inactive: -0.071 | – | – | inactive: 0.081 | – | – | – | – | – | – | – | – | – | – | – | – | inactive: -0.014 | inactive: -0.03 | inactive: -0.08
10 | EPN1 isoform 3 (UniProt Q9Y6I3) | – | inactive: 0.082 | – | – | inactive: -0.069 | inactive: -0.11 | inactive: -0.453 | inactive: 0.231 | inactive: 0.2 | inactive: 0.161 | inactive: -0.029 | inactive: 0.137 | inactive: -0.264 | – | inactive: -0.003 | – | – | inactive: -0.214 | inactive: 0.079 | inactive: 0.004
11 | EIF4G1 isoform 5 (UniProt Q04637) | – | inactive: 0.064 | – | – | inactive: 0.115 | – | – | – | – | – | – | – | – | – | – | – | – | inactive: -0.019 | inactive: -0.064 | inactive: -0.147
12 | EPG5 (UniProt Q9HCE0) | – | inactive: 0.149 | inactive: 0.052 | inactive: -0.016 | inactive: -0.112 | inactive: -0.033 | inactive: -0.062 | inactive: 0.017 | inactive: 0.24 | inactive: 0.025 | inactive: 0.145 | inactive: -0.035 | inactive: 0.212 | – | inactive: 0.05 | inactive: 0.026 | inactive: -0.107 | inactive: -0.058 | inactive: 0.057 | inactive: 0.092
13 | EIF4EBP3 (UniProt O60516) | – | – | – | – | – | – | – | – | – | – | – | – | inactive: -0.033 | – | – | – | – | – | – | –
14 | EIF2AK3 (UniProt Q9NZJ5) | – | inactive: -0.216 | – | – | inactive: 0.231 | inactive: 0.119 | inactive: -0.063 | inactive: -0.199 | inactive: 0.01 | – | inactive: 0.281 | inactive: -0.369 | inactive: 0.28 | – | inactive: 0.104 | – | – | inactive: -0.128 | inactive: -0.197 | inactive: 0.001
15 | ERCC6 (UniProt P0DP91) | – | – | inactive: 0.144 | inactive: 0.121 | – | inactive: -0.215 | – | – | inactive: 0.059 | – | – | inactive: 0.064 | inactive: -0.379 | – | inactive: -0.064 | inactive: -0.114 | inactive: -0.028 | inactive: -0.077 | – | inactive: -0.11
16 | EPS8L2 (UniProt Q9H6S3) | – | inactive: 0 | inactive: -0.049 | inactive: 0.022 | inactive: 0.023 | inactive: -0.034 | inactive: -0.196 | inactive: 0.056 | inactive: 0.045 | inactive: -0.049 | inactive: -0.009 | inactive: 0.078 | inactive: -0.016 | – | inactive: 0.031 | inactive: 0.096 | inactive: -0.037 | inactive: 0.01 | inactive: -0.036 | inactive: -0.149
17 | ERG28 (UniProt Q9UKR5) | – | inactive: -0.012 | inactive: 0.065 | inactive: 0.179 | inactive: 0.048 | – | inactive: 0.541 | active: -0.497 | inactive: 0.1 | – | inactive: 0.304 | – | – | – | inactive: -0.037 | inactive: 0.055 | inactive: -0.062 | – | inactive: -0.024 | –
18 | EPN2 (UniProt I3L356) | – | inactive: 0.212 | inactive: -0.106 | – | inactive: -0.026 | – | inactive: -0.277 | inactive: 0.075 | – | – | inactive: -0.108 | – | – | – | – | – | – | inactive: -0.253 | inactive: -0.02 | inactive: 0.321
19 | EMC1 (UniProt H7C5A2) | – | inactive: -0.006 | – | – | inactive: -0.172 | inactive: -0.312 | – | – | inactive: -0.052 | inactive: -0.223 | – | inactive: 0.187 | inactive: 0.228 | – | inactive: 0.414 | – | – | – | inactive: 0.165 | –
20 | ERAP2 (UniProt Q6P179) | – | inactive: 0.013 | inactive: 0.382 | inactive: 0.005 | inactive: 0.04 | inactive: -0.144 | – | – | – | inactive: 0.036 | – | inactive: 0.048 | inactive: 0.024 | – | – | inactive: 0.032 | inactive: 0.117 | – | inactive: 0.038 | –
21 | EPB41L5 isoform 2 (UniProt Q9HCM4) | – | inactive: 0.079 | – | – | inactive: 0.103 | – | – | – | – | – | – | – | – | – | – | – | – | – | inactive: 0.089 | –

Some of the entries so far, with tabs:
Row	Target	log2 fold change (vemurafenib)	log2 fold change [1]	log2 fold change (barasertib)	log2 fold change [2]	log2 fold change (volasertib)	log2 fold change [3]	log2 fold change [4]	log2 fold change [5]	log2 fold change (saracatinib)	log2 fold change (sotrastaurin)	log2 fold change (alvocidib)	log2 fold change (Tubastatin A)	log2 fold change [6]	log2 fold change (defactinib)	log2 fold change [7]	log2 fold change (encorafenib)	log2 fold change [8]	log2 fold change (alisertib)	log2 fold change [9]	log2 fold change (gefitinib)
2	EPC2 (UniProt Q52LR7)	inactive: 0.125	inactive: 0.107	inactive: -0.168	inactive: -0.056	inactive: -0.497	–	–	–	inactive: 0	inactive: 0.016	–	–	–	inactive: -0.042	inactive: 0.059	inactive: -0.028	inactive: 0.078	–	inactive: 0.02	–
3	EIF4H isoform 2 (UniProt Q15056)	inactive: -0.394	inactive: 0.102	inactive: 0.011	inactive: 0.151	inactive: 0.005	inactive: 0.227	–	–	inactive: 0.008	inactive: -0.008	–	inactive: 0.046	inactive: 0.233	inactive: 0.294	inactive: -0.045	inactive: -0.112	inactive: -0.082	–	inactive: -0.045	–
